Measured values: article PMC4357427
No constants are given. Whether binding was seen depends on the method and setting. In cells and extracts the contact can be indirect. Some entries that bind do so weakly or less than the wild type.

Molecular target: T1, TRIM26 WT, in vitro translated (not stated (the printed accession is the human entry)) (UniProt Q12899)
T1 sequence: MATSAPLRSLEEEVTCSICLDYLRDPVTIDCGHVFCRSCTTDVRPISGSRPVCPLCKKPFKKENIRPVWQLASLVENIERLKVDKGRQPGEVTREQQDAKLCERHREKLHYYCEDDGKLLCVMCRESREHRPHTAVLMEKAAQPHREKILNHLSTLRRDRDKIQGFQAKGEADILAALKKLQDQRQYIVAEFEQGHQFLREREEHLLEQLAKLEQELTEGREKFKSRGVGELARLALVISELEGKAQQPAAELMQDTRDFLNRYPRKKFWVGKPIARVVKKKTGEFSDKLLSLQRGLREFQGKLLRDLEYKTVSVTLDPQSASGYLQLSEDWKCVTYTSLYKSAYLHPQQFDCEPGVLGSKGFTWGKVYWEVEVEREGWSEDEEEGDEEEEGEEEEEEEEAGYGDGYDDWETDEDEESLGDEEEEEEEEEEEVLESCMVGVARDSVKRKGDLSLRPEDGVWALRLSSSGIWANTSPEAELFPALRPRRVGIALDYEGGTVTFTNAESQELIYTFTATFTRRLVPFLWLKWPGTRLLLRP
Test: co-IP; in vitro binding: in vitro translated WT TRIM26 and WT IRF3 mixed together, IP with TRIM26 antibody, western blot with IRF3 antibody

binding: binds
B1: IRF3 WT, in vitro translated (protein, UniProt Q14653 1-427)
chain: MGTPKPRILPWLVSQLDLGQLEGVAWVNKSRTRFRIPWKHGLRQDAQQEDFGIFQAWAEATGAYVPGRDKPDLPTWKRNFRSALNRKEGLRLAEDRSKDPHDPHKIYEFVNSGVGDFSQPDTSPDTNGGGSTSDTQEDILDELLGNMVLAPLPDPGPPSLAVAPEPCPQPLRSPSLDNPTPFPNLGPSENPLKRLLVPGEEWEFEVTAFYRGRQVFQQTISCPEGLRLVGSEVGDRTLPGWPVTLPDPGMSLTDRGVMSYVRHVLSCLGGGLALWRAGQWLWAQRLGHCHTYWAVSEELLPNSGHGPDGEVPKDKEGGVFDLGPFIVDLITFTEGSGRSPRYALWFCVGESWPQDQPWTKRLVMVKVVPTCLRALVEMARVGGASSLENTVDLHISNSHPLSLTSDQYKAYLQDLVEGMDFQGPGES
